Laboratory results taken from the supplement of paper PMC12823440, “Inhibitors supercharge kinase turnover through native proteolytic circuits” (Nature, 2025).
The list shows a part of the results. The calls rarely recur for the same compound in another form.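 In K562 cells expressing nanoluciferase-fused kinases, luminescence was recorded at 4 h intervals between 2 and 18 h, normalized as percent of control with DMSO at 100% and a positive control at 0%. A significant (2 sigma) signal drop marks a time point as decreased. The authors' rule for a hit is not shown and takes in more than the number of time points.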

The chains behind the UniProt entries cited, without tags or fusion partners. Where a name states a change or a piece, a line headed by the entry shows the natural chain unless it says otherwise.
UniProt P00519, whole entry: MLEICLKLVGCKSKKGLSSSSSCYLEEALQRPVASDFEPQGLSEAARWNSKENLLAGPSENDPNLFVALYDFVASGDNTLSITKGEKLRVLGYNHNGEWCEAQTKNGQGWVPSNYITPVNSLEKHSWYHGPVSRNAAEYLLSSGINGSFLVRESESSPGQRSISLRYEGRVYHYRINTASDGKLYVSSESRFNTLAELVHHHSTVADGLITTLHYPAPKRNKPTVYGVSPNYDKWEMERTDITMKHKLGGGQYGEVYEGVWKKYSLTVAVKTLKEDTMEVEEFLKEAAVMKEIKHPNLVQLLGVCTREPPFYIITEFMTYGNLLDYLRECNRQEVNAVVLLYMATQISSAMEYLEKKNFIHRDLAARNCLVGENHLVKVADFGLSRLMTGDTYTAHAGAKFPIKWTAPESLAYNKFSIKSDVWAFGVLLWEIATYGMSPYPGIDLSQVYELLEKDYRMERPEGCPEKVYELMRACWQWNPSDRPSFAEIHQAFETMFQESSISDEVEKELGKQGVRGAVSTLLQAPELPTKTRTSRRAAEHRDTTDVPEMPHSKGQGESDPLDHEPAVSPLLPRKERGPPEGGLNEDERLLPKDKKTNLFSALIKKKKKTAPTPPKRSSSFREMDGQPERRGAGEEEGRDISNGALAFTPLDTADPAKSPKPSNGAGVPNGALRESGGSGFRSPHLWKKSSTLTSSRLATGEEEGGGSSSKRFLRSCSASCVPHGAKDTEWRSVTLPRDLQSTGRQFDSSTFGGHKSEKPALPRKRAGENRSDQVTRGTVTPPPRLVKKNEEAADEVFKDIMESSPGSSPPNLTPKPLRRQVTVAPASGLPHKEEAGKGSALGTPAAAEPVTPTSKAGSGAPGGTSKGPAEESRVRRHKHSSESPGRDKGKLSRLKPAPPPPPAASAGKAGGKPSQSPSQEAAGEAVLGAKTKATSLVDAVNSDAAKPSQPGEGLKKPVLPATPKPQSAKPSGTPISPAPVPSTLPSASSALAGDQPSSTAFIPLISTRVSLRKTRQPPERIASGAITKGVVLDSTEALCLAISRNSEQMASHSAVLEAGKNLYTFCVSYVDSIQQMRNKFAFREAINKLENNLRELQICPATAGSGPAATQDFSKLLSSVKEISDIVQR
UniProt P31749: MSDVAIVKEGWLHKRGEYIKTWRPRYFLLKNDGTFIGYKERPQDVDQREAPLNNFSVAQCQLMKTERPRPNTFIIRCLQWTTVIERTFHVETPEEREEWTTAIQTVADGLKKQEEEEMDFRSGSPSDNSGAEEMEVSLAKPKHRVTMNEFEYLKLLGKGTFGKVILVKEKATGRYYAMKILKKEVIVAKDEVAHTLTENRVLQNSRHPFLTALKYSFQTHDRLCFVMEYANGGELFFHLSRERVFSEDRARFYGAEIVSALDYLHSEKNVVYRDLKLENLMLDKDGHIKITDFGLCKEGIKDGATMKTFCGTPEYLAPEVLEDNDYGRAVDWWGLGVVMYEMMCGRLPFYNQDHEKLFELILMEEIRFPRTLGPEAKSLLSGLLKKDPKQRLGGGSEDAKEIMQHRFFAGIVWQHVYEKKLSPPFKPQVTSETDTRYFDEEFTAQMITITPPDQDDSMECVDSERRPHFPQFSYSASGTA
UniProt P10398: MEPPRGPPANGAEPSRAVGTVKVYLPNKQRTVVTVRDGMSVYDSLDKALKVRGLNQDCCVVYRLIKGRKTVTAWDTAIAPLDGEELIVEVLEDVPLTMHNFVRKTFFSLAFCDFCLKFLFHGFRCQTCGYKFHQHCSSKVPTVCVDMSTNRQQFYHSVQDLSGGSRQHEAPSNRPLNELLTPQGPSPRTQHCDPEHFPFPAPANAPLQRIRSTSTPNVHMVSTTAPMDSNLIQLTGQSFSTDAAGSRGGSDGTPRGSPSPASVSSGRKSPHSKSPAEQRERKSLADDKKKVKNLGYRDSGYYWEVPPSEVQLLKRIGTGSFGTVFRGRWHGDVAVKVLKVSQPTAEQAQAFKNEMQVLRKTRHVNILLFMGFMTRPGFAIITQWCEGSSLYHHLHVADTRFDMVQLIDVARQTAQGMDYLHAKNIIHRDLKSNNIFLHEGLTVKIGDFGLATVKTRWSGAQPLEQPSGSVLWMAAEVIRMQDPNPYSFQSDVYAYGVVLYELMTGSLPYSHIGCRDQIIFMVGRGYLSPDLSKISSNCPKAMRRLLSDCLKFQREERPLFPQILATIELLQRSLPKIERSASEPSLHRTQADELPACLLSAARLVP
UniProt Q96GD4, whole entry: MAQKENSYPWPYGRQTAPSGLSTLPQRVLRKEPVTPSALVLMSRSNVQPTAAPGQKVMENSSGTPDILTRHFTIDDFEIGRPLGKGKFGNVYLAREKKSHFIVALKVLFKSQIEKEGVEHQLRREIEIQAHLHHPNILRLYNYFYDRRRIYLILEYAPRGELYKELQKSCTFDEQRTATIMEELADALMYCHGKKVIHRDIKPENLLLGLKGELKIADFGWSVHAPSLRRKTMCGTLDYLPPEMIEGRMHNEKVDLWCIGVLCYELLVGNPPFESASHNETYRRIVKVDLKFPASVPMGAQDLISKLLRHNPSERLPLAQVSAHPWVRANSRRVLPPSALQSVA
UniProt Q9UQB9: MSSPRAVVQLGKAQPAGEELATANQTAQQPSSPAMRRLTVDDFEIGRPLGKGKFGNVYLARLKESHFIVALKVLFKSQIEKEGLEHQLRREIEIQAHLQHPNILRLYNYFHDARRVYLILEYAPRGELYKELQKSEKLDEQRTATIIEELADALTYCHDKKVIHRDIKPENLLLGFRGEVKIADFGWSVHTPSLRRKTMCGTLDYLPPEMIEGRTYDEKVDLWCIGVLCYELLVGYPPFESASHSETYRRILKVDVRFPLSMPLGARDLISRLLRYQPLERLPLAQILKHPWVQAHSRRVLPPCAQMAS
UniProt P51813: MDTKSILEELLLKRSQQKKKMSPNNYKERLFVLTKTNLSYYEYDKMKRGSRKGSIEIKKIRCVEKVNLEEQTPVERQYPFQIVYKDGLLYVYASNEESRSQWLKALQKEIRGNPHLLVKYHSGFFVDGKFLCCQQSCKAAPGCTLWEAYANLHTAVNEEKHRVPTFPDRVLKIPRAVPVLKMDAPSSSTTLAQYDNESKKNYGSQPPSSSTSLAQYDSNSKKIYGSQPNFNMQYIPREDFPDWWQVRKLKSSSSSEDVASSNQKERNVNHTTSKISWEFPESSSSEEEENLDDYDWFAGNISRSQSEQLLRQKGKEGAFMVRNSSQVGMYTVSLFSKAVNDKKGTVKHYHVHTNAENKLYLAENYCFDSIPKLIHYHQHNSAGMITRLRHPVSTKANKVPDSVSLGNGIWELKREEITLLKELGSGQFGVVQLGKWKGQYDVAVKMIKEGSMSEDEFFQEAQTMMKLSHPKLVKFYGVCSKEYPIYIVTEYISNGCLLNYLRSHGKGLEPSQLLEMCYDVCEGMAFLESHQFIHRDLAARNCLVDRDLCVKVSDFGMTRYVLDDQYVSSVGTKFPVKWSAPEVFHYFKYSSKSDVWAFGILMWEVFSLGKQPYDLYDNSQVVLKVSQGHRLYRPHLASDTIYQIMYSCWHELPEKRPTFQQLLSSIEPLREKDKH
UniProt P15056, whole entry, looked up: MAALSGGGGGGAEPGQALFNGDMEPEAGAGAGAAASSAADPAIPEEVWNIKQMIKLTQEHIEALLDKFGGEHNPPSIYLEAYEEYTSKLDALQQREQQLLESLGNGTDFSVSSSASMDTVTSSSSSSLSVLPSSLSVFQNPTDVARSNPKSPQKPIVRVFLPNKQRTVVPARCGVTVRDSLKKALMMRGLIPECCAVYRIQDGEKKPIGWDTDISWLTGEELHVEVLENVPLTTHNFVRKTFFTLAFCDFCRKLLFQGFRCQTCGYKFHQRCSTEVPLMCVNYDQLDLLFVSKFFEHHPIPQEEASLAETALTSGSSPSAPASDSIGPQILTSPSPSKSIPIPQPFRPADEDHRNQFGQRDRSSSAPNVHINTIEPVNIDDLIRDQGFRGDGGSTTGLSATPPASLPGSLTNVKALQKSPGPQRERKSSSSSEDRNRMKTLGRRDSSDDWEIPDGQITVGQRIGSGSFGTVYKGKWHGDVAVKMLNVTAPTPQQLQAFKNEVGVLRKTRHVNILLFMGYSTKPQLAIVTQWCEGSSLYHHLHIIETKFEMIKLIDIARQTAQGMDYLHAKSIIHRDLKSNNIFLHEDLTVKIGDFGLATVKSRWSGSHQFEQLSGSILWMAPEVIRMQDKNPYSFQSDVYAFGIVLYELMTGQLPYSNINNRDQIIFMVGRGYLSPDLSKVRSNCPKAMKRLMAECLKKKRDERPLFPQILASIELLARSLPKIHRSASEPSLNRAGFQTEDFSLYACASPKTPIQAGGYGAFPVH
UniProt Q06187: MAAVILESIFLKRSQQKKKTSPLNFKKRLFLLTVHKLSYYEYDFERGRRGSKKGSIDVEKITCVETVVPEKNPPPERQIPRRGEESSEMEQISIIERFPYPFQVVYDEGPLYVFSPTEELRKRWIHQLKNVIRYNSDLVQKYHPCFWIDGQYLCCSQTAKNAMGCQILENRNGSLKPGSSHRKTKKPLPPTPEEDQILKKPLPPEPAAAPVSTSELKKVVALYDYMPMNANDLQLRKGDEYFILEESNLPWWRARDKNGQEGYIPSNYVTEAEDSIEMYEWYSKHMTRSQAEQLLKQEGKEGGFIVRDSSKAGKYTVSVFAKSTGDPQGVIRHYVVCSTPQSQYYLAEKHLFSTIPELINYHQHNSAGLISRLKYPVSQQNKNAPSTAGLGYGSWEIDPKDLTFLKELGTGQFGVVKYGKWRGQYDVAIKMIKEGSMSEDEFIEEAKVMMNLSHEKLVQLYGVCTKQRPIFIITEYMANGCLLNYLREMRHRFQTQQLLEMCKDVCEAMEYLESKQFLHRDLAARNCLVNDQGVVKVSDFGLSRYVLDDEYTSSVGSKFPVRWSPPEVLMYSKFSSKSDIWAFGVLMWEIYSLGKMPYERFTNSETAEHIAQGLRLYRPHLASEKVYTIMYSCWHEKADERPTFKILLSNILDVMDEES
UniProt Q9UQM7, whole entry: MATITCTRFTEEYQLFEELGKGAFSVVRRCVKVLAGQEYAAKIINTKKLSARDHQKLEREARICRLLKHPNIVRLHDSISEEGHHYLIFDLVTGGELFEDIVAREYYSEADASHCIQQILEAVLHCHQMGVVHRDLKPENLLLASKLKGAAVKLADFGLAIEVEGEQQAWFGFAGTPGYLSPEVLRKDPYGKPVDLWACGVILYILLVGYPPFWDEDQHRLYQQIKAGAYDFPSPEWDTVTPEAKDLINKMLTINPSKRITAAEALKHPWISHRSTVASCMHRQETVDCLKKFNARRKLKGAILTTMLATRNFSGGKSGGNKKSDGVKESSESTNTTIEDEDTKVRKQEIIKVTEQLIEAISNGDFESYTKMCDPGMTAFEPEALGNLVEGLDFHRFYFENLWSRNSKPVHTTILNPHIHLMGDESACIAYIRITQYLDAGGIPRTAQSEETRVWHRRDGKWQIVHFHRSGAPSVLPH
UniProt Q15131: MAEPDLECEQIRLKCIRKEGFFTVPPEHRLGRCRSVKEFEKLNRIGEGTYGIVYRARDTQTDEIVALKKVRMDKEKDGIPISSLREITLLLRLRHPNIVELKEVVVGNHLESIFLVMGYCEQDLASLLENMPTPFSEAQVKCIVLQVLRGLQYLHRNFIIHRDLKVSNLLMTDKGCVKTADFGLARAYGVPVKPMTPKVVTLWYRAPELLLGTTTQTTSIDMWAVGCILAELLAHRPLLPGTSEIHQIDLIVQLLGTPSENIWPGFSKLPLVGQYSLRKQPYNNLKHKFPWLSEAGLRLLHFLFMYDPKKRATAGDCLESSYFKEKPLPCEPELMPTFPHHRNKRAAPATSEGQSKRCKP
UniProt Q00526: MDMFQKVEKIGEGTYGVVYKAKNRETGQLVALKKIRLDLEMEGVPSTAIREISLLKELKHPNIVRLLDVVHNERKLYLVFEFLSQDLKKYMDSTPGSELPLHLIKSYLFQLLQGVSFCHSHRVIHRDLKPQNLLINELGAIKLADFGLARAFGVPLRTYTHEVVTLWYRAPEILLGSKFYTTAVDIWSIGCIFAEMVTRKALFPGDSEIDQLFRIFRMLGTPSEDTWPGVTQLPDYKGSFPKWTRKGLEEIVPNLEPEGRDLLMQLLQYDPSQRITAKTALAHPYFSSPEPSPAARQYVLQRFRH
UniProt Q00535, whole entry, looked up: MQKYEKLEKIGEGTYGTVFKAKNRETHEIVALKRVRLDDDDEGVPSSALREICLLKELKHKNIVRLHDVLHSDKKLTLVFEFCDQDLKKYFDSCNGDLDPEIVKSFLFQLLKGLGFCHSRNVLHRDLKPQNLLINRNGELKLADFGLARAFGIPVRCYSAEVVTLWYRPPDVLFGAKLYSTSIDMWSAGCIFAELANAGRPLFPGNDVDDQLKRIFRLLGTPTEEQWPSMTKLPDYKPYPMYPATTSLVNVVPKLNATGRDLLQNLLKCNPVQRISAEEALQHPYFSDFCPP

Experiments:
Assay in all cases: kinase-Nluc reporter destabilization hit call (1 = scored as downregulated) (binary); higher = compound decreases kinase abundance
Conditions in all cases: K562; 2-18 h
ABL1 = ABL1 (UniProt P00519)
AKT1 = AKT1 (UniProt P31749)
ALK = ALK (UniProt Q9UM73)
ARAF = ARAF (UniProt P10398)
AURKA = AURKA (UniProt O14965)
AURKB = AURKB (UniProt Q96GD4)
AURKC = AURKC (UniProt Q9UQB9)
BLK = BLK (UniProt P51451)
BMX = BMX (UniProt P51813)
BRAF = BRAF (UniProt P15056)
BRAF_V600E = system: BRAF_V600E
BTK = BTK (UniProt Q06187)
CAMK2A = CAMK2A (UniProt Q9UQM7)
CAMK2G = CAMK2G (UniProt Q13555)
CDK10 = CDK10 (UniProt Q15131)
CDK2 = CDK2 (UniProt P24941)
CDK3 = CDK3 (UniProt Q00526)
CDK4 = CDK4 (UniProt P11802)
CDK5 = CDK5 (UniProt Q00535)
CDK6 = CDK6 (UniProt Q00534)

Measured: kinase-Nluc reporter destabilization hit call

CNC(=O)c1ccccc1Nc1nc(Nc2ccc(N3CCOCC3)cc2OC)ncc1Cl (2.5 µM)
inactive: ABL1 = 0 | AKT1 = 0 | ALK 0 | ARAF 0 | AURKA 0 | AURKB 0 | AURKC 0 | BLK 0 | BMX 0 | BRAF 0 | BRAF_V600E 0 | BTK 0 | CAMK2A 0 | CAMK2G 0 | CDK10 = 0 | CDK2 = 0 | CDK3 = 0 | CDK4 = 0 | CDK5 = 0 | CDK6 = 0

Cc1ccc(S(=O)(=O)Nc2nc3ccccc3nc2Nc2ccc3nsnc3c2)cc1 [Pilaralisib analogue] (10 µM)
active: BRAF 1 | CDK10 = 1
inactive: ABL1 = 0 | AKT1 = 0 | ALK 0 | ARAF 0 | AURKA 0 | AURKB 0 | AURKC 0 | BLK 0 | BMX 0 | BRAF_V600E 0 | BTK 0 | CAMK2A 0 | CAMK2G 0 | CDK2 = 0 | CDK3 = 0 | CDK4 = 0 | CDK5 = 0 | CDK6 = 0

COc1cc(C=C(C#N)C(N)=O)cc(CSc2nc3ccccc3s2)c1O (10 µM)
inactive: ABL1 = 0 | AKT1 = 0 | ALK 0 | ARAF 0 | AURKA 0 | AURKB 0 | AURKC 0 | BLK 0 | BMX 0 | BRAF 0 | BRAF_V600E 0 | BTK 0 | CAMK2A 0 | CAMK2G 0 | CDK10 = 0 | CDK2 = 0 | CDK3 = 0 | CDK4 = 0 | CDK5 = 0 | CDK6 = 0

O=c1cc(N2CCOCC2)oc2c(-c3ccccc3)cccc12 (10 µM)
inactive: ABL1 = 0 | AKT1 = 0 | ALK 0 | ARAF 0 | AURKA 0 | AURKB 0 | AURKC 0 | BLK 0 | BMX 0 | BRAF 0 | BRAF_V600E 0 | BTK 0 | CAMK2A 0 | CAMK2G 0 | CDK10 = 0 | CDK2 = 0 | CDK3 = 0 | CDK4 = 0 | CDK5 = 0 | CDK6 = 0

Cc1cc(C(=O)Nc2cccc(C(=O)Nc3cccc(C(F)(F)F)c3)c2)on1 (10 µM)
inactive: ABL1 = 0 | AKT1 = 0 | ALK 0 | ARAF 0 | AURKA 0 | AURKB 0 | AURKC 0 | BLK 0 | BMX 0 | BRAF 0 | BRAF_V600E 0 | BTK 0 | CAMK2A 0 | CAMK2G 0 | CDK10 = 0 | CDK2 = 0 | CDK3 = 0 | CDK4 = 0 | CDK5 = 0 | CDK6 = 0

CNC(=O)c1cccc(-c2ccc3c(N4CCOC[C@@H]4C)nc(N4CCOC[C@@H]4C)nc3n2)c1 [Vistusertib] (2.5 µM)
active: ABL1 = 1
inactive: AKT1 = 0 | ALK 0 | ARAF 0 | AURKA 0 | AURKB 0 | AURKC 0 | BLK 0 | BMX 0 | BRAF 0 | BRAF_V600E 0 | BTK 0 | CAMK2A 0 | CAMK2G 0 | CDK10 = 0 | CDK2 = 0 | CDK3 = 0 | CDK4 = 0 | CDK5 = 0 | CDK6 = 0

CCCCOc1c(C(=O)c2c(F)cc(C)cc2F)c[nH]c2nncc1-2 (10 µM)
inactive: ABL1 = 0 | AKT1 = 0 | ALK 0 | ARAF 0 | AURKA 0 | AURKB 0 | AURKC 0 | BLK 0 | BMX 0 | BRAF 0 | BRAF_V600E 0 | BTK 0 | CAMK2A 0 | CAMK2G 0 | CDK10 = 0 | CDK2 = 0 | CDK3 = 0 | CDK4 = 0 | CDK5 = 0 | CDK6 = 0

O=c1oc2ccccc2c(O)c1Cc1c(O)c2ccccc2oc1=O [Dicoumarol] (10 µM)
inactive: ABL1 = 0 | AKT1 = 0 | ALK 0 | ARAF 0 | AURKA 0 | AURKB 0 | AURKC 0 | BLK 0 | BMX 0 | BRAF 0 | BRAF_V600E 0 | BTK 0 | CAMK2A 0 | CAMK2G 0 | CDK10 = 0 | CDK2 = 0 | CDK3 = 0 | CDK4 = 0 | CDK5 = 0 | CDK6 = 0

COc1cc2ncn(-c3cc(OCc4ccccc4C(F)(F)F)c(C(N)=O)s3)c2cc1OC (10 µM)
inactive: ABL1 = 0 | AKT1 = 0 | ALK 0 | ARAF 0 | AURKA 0 | AURKB 0 | AURKC 0 | BLK 0 | BMX 0 | BRAF 0 | BRAF_V600E 0 | BTK 0 | CAMK2A 0 | CAMK2G 0 | CDK10 = 0 | CDK2 = 0 | CDK3 = 0 | CDK4 = 0 | CDK5 = 0 | CDK6 = 0

CC(C)(C)S(=O)(=O)c1cc2c(Nc3ccc4scnc4c3)ncnc2cc1OCCO (2.5 µM)
inactive: ABL1 = 0 | AKT1 = 0 | ALK 0 | ARAF 0 | AURKA 0 | AURKB 0 | AURKC 0 | BLK 0 | BMX 0 | BRAF 0 | BRAF_V600E 0 | BTK 0 | CAMK2A 0 | CAMK2G 0 | CDK10 = 0 | CDK2 = 0 | CDK3 = 0 | CDK4 = 0 | CDK5 = 0 | CDK6 = 0

CCC(=O)N1CCN(c2ccc(-n3c(=O)ccc4cnc5ccc(-c6cnc7ccccc7c6)cc5c43)cc2C(F)(F)F)CC1 [Torin 1] (2 µM)
inactive: AKT1 = 0 | ALK 0 | ARAF 0 | AURKA 0 | AURKB 0 | AURKC 0 | BLK 0 | BMX 0 | BRAF 0 | BRAF_V600E 0 | BTK 0 | CAMK2A 0 | CAMK2G 0 | CDK10 = 0 | CDK2 = 0 | CDK3 = 0 | CDK4 = 0 | CDK5 = 0 | CDK6 = 0
active: ABL1 = 1

N#C/C(=C\c1ccc(O)c(O)c1)C(=O)NCc1ccccc1 (10 µM)
inactive: ABL1 = 0 | AKT1 = 0 | ALK 0 | ARAF 0 | AURKA 0 | AURKB 0 | AURKC 0 | BLK 0 | BMX 0 | BRAF 0 | BRAF_V600E 0 | BTK 0 | CAMK2A 0 | CAMK2G 0 | CDK10 = 0 | CDK2 = 0 | CDK3 = 0 | CDK4 = 0 | CDK5 = 0 | CDK6 = 0

C[C@H](CN(C)C)Oc1nc(Nc2cc3cccc(Cl)c3cn2)cnc1C#N (10 µM)
inactive: ABL1 = 0 | AKT1 = 0 | ALK 0 | ARAF 0 | AURKA 0 | AURKB 0 | AURKC 0 | BLK 0 | BMX 0 | BRAF 0 | BRAF_V600E 0 | BTK 0 | CAMK2A 0 | CAMK2G 0 | CDK10 = 0 | CDK2 = 0 | CDK3 = 0 | CDK4 = 0 | CDK5 = 0 | CDK6 = 0

COc1cc(Nc2ncc3c(n2)-c2ccc(Cl)cc2C(c2c(F)cccc2OC)=NC3)ccc1C(=O)O [Alisertib] (2.5 µM)
inactive: ABL1 = 0 | AKT1 = 0 | ALK 0 | ARAF 0 | AURKA 0 | AURKB 0 | AURKC 0 | BLK 0 | BMX 0 | BRAF 0 | BRAF_V600E 0 | BTK 0 | CAMK2A 0 | CAMK2G 0 | CDK10 = 0 | CDK2 = 0 | CDK3 = 0 | CDK4 = 0 | CDK5 = 0 | CDK6 = 0

CC(C)C(=O)Nc1ncc(-c2cc(C(F)F)nn2-c2c(Cl)cccc2Cl)s1 (10 µM)
active: BMX 1
inactive: ABL1 = 0 | AKT1 = 0 | ALK 0 | ARAF 0 | AURKA 0 | AURKB 0 | AURKC 0 | BLK 0 | BRAF 0 | BRAF_V600E 0 | BTK 0 | CAMK2A 0 | CAMK2G 0 | CDK10 = 0 | CDK2 = 0 | CDK3 = 0 | CDK4 = 0 | CDK5 = 0 | CDK6 = 0

COc1cc2nc(C)nc(N[C@H](C)c3cc(N)cc(C(F)(F)F)c3)c2cc1O[C@H]1CCOC1 (10 µM)
inactive: ABL1 = 0 | AKT1 = 0 | ALK 0 | ARAF 0 | AURKA 0 | AURKB 0 | AURKC 0 | BLK 0 | BMX 0 | BRAF 0 | BRAF_V600E 0 | BTK 0 | CAMK2A 0 | CAMK2G 0 | CDK10 = 0 | CDK2 = 0 | CDK3 = 0 | CDK4 = 0 | CDK5 = 0 | CDK6 = 0

COc1cc(OC)cc(N(CCNC(C)C)c2ccc3ncc(-c4cnn(C)c4)nc3c2)c1 [Erdafitinib] (2.5 µM)
inactive: ABL1 = 0 | AKT1 = 0 | ALK 0 | ARAF 0 | AURKA 0 | AURKB 0 | AURKC 0 | BLK 0 | BMX 0 | BRAF 0 | BRAF_V600E 0 | BTK 0 | CAMK2A 0 | CAMK2G 0 | CDK10 = 0 | CDK2 = 0 | CDK3 = 0 | CDK4 = 0 | CDK5 = 0 | CDK6 = 0

Of the compounds above, these contain two or more sulfur atoms:
Cc1ccc(S(=O)(=O)Nc2nc3ccccc3nc2Nc2ccc3nsnc3c2)cc1 [Pilaralisib analogue] (10 µM)
active: BRAF 1 | CDK10 = 1
inactive: ABL1 = 0 | AKT1 = 0 | ALK 0 | ARAF 0 | AURKA 0 | AURKB 0 | AURKC 0 | BLK 0 | BMX 0 | BRAF_V600E 0 | BTK 0 | CAMK2A 0 | CAMK2G 0 | CDK2 = 0 | CDK3 = 0 | CDK4 = 0 | CDK5 = 0 | CDK6 = 0

COc1cc(C=C(C#N)C(N)=O)cc(CSc2nc3ccccc3s2)c1O (10 µM)
inactive: ABL1 = 0 | AKT1 = 0 | ALK 0 | ARAF 0 | AURKA 0 | AURKB 0 | AURKC 0 | BLK 0 | BMX 0 | BRAF 0 | BRAF_V600E 0 | BTK 0 | CAMK2A 0 | CAMK2G 0 | CDK10 = 0 | CDK2 = 0 | CDK3 = 0 | CDK4 = 0 | CDK5 = 0 | CDK6 = 0

CC(C)(C)S(=O)(=O)c1cc2c(Nc3ccc4scnc4c3)ncnc2cc1OCCO (2.5 µM)
inactive: ABL1 = 0 | AKT1 = 0 | ALK 0 | ARAF 0 | AURKA 0 | AURKB 0 | AURKC 0 | BLK 0 | BMX 0 | BRAF 0 | BRAF_V600E 0 | BTK 0 | CAMK2A 0 | CAMK2G 0 | CDK10 = 0 | CDK2 = 0 | CDK3 = 0 | CDK4 = 0 | CDK5 = 0 | CDK6 = 0

(list continues)

CC1(C)CC=C(c2nc(C3CC(C)(C)OC(C)(C)C3)ccc2NC(=O)c2nc(C#N)c[nH]2)CC1 [Edicotinib] (2.5 µM)
inactive: ABL1 = 0 | AKT1 = 0 | ALK 0 | ARAF 0 | AURKA 0 | AURKB 0 | AURKC 0 | BLK 0 | BMX 0 | BRAF 0 | BRAF_V600E 0 | BTK 0 | CAMK2A 0 | CAMK2G 0 | CDK10 = 0 | CDK2 = 0 | CDK3 = 0 | CDK4 = 0 | CDK5 = 0 | CDK6 = 0
